In assay [1] the target is cellular prion protein (PrP^C) (mouse (endogenous in wild type mouse brain)) (UniProt P04925). The assay is described as follows: co-IP.
In assay [2] the target is GRP78 (78-kDa glucose regulated protein) (mouse (endogenous in wild type mouse brain)) (UniProt P20029). The assay is described as follows: co-IP.

Chains of the proteins cited; added tags and fusions are not shown. Residues count along the entry.
UniProt P20029, residues 20-655: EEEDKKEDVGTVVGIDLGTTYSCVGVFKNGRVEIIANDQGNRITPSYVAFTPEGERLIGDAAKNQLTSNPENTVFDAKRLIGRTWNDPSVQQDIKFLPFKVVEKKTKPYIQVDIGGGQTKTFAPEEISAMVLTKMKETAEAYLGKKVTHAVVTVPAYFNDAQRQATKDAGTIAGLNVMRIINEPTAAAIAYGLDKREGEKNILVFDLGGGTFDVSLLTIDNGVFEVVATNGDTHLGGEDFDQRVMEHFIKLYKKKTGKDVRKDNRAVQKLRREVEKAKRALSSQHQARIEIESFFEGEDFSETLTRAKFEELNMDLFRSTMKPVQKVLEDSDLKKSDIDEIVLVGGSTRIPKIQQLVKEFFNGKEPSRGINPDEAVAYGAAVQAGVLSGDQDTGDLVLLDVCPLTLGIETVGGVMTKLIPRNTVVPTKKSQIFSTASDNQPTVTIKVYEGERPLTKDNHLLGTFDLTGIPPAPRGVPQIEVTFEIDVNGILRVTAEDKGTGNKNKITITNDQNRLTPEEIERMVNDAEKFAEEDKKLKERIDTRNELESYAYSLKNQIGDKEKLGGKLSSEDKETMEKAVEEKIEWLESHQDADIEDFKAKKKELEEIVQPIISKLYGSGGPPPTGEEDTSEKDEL

Results are given in words; binding and its absence hold for the method and conditions named. In cells and extracts the contact can be indirect. Some entries that bind do so weakly or less than the wild type.

“GRP78 (78-kDa glucose regulated protein) (from UniProt P20029 20-655)”: the binding result in assay [1] is given as “binds”.
As for “cellular prion protein (PrP^C) (from UniProt P04925 23-230)”, the binding result in assay [2] is listed as “binds”.

Source of the values: PMC5363067.
